From the supplement of paper PMC10849652
This is one part of the list.

Amino acid sequences for entries named in this document (tags omitted). A change or cut given only in a name is not applied to a line headed by its entry.
UniProt Q9BQA1, whole entry, looked up: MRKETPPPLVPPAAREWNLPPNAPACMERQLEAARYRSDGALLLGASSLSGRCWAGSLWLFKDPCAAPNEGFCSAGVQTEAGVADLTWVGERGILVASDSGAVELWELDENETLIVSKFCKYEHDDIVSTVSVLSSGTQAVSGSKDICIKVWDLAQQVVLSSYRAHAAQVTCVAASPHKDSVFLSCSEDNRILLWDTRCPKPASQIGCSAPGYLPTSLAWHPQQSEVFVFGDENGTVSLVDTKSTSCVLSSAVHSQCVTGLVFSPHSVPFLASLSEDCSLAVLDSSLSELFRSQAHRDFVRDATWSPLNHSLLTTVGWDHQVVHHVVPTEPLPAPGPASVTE
UniProt Q9Y6W5, whole entry, looked up: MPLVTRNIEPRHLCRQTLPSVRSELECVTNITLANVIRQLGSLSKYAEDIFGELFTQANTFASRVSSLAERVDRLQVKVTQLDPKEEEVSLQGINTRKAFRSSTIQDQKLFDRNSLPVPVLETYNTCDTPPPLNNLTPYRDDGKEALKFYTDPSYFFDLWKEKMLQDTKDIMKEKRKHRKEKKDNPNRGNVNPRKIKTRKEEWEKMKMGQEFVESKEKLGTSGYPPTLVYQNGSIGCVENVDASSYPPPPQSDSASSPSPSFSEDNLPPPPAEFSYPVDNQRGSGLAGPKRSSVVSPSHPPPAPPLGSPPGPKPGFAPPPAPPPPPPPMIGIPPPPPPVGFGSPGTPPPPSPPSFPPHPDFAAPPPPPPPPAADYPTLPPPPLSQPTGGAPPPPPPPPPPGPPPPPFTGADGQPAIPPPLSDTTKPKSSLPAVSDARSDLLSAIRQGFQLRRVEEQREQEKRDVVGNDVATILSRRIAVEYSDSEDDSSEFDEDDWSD
UniProt Q96FK6: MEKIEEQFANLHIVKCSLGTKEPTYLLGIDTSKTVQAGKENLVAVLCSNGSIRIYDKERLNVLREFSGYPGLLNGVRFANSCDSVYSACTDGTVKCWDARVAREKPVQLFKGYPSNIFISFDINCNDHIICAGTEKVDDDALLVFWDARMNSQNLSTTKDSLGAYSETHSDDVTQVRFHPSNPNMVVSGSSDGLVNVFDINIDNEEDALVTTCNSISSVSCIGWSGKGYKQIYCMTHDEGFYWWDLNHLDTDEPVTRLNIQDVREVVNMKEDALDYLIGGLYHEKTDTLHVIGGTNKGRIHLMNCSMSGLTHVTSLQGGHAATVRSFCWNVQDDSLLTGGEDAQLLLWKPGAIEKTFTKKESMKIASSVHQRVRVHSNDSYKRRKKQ
UniProt Q9P2S5: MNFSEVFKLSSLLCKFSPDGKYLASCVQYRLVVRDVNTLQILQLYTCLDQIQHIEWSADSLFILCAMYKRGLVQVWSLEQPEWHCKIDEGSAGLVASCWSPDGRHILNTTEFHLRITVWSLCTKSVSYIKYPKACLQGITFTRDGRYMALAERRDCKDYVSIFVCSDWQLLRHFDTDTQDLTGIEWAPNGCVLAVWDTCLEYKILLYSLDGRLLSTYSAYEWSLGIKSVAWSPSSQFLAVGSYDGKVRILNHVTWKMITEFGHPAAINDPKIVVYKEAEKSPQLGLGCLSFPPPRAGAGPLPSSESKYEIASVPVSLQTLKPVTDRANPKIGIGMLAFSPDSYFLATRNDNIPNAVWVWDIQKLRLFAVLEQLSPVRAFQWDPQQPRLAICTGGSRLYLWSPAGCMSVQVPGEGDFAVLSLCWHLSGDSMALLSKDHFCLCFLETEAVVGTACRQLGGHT
UniProt Q8TBZ3: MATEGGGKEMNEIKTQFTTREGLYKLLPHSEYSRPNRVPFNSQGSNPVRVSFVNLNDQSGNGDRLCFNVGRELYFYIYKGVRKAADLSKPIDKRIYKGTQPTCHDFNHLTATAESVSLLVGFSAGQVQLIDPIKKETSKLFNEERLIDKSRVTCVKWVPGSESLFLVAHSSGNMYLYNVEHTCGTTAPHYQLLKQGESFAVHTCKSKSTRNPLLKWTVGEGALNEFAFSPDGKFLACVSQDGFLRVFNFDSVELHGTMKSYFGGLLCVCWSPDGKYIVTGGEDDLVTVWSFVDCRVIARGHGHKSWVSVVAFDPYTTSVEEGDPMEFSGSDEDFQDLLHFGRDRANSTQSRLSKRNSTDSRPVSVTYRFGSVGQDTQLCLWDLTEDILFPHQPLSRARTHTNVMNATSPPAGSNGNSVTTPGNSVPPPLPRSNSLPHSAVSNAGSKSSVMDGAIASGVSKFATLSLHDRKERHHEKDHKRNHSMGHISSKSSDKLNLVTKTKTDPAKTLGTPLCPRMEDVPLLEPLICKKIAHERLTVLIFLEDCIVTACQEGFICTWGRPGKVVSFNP
UniProt Q9BUR4: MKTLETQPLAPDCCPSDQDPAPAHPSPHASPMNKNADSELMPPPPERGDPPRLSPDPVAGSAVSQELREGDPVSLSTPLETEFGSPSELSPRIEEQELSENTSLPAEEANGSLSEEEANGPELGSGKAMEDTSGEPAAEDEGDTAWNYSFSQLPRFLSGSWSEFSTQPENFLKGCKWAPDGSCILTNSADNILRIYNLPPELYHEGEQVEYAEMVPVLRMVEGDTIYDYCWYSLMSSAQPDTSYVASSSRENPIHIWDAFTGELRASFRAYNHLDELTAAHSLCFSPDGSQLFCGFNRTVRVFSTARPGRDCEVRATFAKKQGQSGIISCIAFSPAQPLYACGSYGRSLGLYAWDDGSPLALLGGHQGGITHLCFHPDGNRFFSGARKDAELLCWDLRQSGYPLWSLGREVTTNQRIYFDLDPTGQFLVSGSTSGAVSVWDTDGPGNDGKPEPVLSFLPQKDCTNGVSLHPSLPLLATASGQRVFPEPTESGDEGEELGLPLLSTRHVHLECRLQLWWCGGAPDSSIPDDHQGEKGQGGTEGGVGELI
UniProt Q9Y484: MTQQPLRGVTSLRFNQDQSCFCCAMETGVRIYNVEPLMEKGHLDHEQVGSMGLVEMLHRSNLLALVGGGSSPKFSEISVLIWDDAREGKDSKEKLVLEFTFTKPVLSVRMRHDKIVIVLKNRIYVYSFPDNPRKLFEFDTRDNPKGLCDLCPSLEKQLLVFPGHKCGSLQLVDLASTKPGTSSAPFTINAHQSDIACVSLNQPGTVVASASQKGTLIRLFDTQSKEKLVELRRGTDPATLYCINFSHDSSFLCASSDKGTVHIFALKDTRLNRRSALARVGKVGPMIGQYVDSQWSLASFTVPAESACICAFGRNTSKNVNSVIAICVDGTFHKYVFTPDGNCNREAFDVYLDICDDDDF
UniProt P04004: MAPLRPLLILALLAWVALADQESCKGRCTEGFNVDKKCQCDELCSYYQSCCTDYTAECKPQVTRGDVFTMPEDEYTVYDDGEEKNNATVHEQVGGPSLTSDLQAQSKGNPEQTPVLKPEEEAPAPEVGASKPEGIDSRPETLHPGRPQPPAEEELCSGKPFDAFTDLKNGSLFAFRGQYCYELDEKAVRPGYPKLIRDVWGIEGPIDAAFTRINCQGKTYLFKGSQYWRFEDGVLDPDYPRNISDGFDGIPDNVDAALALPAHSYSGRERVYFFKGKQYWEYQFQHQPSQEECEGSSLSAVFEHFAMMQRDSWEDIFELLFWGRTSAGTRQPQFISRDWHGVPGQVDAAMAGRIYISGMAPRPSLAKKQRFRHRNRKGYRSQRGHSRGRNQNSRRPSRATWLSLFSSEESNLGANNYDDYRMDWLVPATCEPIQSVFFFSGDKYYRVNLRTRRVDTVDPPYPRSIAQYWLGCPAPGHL
UniProt O00534: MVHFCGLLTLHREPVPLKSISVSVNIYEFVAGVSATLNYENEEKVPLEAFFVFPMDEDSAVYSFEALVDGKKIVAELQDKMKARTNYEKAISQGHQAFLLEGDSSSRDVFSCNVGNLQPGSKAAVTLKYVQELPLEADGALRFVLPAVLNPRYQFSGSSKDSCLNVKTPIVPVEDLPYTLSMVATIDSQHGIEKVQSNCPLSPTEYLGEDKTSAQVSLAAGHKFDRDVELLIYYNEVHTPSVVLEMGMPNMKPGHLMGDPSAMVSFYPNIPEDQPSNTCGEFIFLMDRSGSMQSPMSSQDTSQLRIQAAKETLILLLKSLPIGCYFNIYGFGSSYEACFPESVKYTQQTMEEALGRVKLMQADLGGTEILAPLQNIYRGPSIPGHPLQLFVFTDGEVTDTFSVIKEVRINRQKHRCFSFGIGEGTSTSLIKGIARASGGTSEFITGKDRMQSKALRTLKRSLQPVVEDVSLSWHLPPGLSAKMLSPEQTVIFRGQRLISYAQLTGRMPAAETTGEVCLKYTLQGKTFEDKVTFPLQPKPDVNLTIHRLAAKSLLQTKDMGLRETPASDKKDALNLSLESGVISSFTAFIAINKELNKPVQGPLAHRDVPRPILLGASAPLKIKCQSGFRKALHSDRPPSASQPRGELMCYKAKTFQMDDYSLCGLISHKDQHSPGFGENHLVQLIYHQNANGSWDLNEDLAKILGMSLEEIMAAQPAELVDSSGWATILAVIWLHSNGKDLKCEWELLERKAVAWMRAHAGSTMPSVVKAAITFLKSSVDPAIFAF
UniProt Q14119: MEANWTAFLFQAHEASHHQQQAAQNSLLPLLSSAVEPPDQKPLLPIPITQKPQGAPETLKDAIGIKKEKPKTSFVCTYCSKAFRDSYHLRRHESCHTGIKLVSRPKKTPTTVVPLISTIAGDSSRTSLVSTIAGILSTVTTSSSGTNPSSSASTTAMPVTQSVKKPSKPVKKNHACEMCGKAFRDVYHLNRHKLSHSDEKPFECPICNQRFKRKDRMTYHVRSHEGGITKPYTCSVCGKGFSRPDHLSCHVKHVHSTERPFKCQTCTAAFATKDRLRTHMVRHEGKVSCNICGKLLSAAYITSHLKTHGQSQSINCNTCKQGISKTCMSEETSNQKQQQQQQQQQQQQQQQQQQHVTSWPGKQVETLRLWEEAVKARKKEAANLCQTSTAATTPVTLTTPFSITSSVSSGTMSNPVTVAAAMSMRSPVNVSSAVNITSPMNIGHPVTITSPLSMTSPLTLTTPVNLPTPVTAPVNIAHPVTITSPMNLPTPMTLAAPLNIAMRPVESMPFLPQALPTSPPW
UniProt Q96EX3: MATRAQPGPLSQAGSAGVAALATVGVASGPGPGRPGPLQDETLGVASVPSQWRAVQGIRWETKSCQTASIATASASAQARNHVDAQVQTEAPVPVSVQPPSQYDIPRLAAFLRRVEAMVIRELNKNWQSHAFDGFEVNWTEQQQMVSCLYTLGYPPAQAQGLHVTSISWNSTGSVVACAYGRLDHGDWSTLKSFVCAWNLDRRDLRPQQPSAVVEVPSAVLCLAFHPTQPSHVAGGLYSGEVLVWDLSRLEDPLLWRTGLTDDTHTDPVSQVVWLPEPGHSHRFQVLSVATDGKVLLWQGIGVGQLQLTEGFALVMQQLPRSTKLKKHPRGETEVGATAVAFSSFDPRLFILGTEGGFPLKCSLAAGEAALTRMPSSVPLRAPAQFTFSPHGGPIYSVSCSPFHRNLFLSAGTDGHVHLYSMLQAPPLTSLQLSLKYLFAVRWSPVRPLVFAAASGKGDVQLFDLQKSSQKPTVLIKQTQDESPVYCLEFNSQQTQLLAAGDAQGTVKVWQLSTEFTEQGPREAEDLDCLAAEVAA
UniProt Q9NW82: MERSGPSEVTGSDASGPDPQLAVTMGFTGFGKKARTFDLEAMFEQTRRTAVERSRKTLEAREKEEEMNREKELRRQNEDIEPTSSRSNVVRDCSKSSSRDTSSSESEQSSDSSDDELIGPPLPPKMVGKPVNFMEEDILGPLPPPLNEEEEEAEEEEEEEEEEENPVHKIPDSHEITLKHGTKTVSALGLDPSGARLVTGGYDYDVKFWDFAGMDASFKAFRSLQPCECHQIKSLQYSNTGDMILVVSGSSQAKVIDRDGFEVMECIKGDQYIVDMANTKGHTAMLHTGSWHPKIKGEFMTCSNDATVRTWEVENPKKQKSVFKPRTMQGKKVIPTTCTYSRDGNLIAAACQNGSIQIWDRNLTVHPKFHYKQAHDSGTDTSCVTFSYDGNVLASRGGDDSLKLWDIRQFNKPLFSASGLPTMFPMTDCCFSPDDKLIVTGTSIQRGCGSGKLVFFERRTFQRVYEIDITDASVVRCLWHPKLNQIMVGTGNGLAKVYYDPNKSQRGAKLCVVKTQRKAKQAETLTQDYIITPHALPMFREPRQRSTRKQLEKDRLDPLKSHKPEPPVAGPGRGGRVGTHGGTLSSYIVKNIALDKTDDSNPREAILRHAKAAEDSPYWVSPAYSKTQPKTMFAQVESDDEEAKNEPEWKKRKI
UniProt Q5MNZ9: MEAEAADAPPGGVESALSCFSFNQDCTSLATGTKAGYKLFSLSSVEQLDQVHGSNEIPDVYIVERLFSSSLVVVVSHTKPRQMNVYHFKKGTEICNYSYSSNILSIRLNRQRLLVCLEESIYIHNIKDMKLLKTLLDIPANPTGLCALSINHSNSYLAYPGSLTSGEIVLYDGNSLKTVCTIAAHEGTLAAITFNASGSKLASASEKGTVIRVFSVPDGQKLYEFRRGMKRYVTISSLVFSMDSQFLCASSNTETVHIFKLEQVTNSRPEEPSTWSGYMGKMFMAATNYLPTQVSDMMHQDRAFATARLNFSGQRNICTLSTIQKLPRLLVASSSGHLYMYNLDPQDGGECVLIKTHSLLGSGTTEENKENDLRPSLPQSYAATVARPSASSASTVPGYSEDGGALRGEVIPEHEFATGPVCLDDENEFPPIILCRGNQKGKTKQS

What follows are targets tested with Cc1nc(Nc2ncc(C(=O)Nc3c(C)cccc3Cl)s2)cc(N2CCN(CCO)CC2)n1 [dasatinib] (assay: log2 fold change, soluble protein after heating vs DMSO (PISA); higher = thermal stabilisation; K562 cells, 10 uM, 30 min; active = over 0.2 and 3.5 SD of the protein, either way, in both replicates (recomputed)).
Summary of the method: (§1)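 Aliquots of K562 cells (2×10^6 cells/mL) treated with 10 μM compound for 30 min were heated for 3 min over 48°C-58°C. After pooling and extraction in PBS with 0.5% NP-40 at 4°C, soluble protein from a 21,000xg, 90 min spin was quantified by TMTpro 16plex LC-MS/MS with channel sums equalised. Thermal stability is expressed against control samples, from duplicates, as a log2 fold change.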

log2 fold change, inactive:
WDR77 (UniProt Q9BQA1) 0.054
WDR5 (UniProt P61964) 0.118
WASF2 (UniProt Q9Y6W5) 0.016
WDR89 (UniProt Q96FK6) 0.058
WRAP73 (UniProt Q9P2S5) 0.053
VDAC3 (UniProt Q9Y277) 0.047
WDR6 (UniProt Q9NNW5) -0.045
WDR20 isoform 7 (UniProt Q8TBZ3) 0.023
WIPF3 (UniProt A6NGB9) 0.232
WRAP53 (UniProt Q9BUR4) 0.024
WDR45 (UniProt Q9Y484) 0.038
VTN (UniProt P04004) 0.09
VPS4B (UniProt O75351) -0.109
VWA5A (UniProt O00534) -0.006
WIZ (UniProt O95785) -0.015
VEZF1 (UniProt Q14119) 0.371
WDR34 (UniProt Q96EX3) 0.025
WDR70 (UniProt Q9NW82) -0.035
WIPI1 (UniProt Q5MNZ9) 0.012

Each target was assayed with Cc1ncc(-c2ccnc(Nc3ccc(S(C)(=O)=O)cc3)n2)n1C(C)C in the same assay as above.
Summary of the method: as §1

log2 fold change, inactive:
WDR61 (UniProt Q9GZS3) -0.075
WDR36 (UniProt Q8NI36) 0.108
WDR44 (UniProt Q5JSH3) -0.003
WDR13 (UniProt Q9H1Z4) -0.055
WASL (UniProt O00401) -0.016
WDR74 (UniProt Q6RFH5) 0.038
WASHC2A (UniProt Q641Q2) -0.012
WARS (UniProt P23381) 0.006
WASHC4 (UniProt Q2M389) -0.155
WDFY1 (UniProt Q8IWB7) -0.022
VPS13C (UniProt Q709C8) 0.045
WBP11 (UniProt Q9Y2W2) -0.001
WDR45B (UniProt Q5MNZ6) -0.023
VPS35 (UniProt Q96QK1) -0.034
WDR77 (UniProt Q9BQA1) -0.014
WDR5 (UniProt P61964) -0.022
WASF2 (UniProt Q9Y6W5) -0.03
VRK3 (UniProt Q8IV63) -0.162
WDR89 (UniProt Q96FK6) -0.005
WRAP73 (UniProt Q9P2S5) 0.007
VDAC3 (UniProt Q9Y277) -0.006
WDR6 (UniProt Q9NNW5) -0.001
WDR20 isoform 7 (UniProt Q8TBZ3) 0.045
WIPF3 (UniProt A6NGB9) 0.088
WRAP53 (UniProt Q9BUR4) 0.172
WDR45 (UniProt Q9Y484) 0.005
VTN (UniProt P04004) 0.224
VPS4B (UniProt O75351) 0.02
VWA5A (UniProt O00534) 0.048
WIZ (UniProt O95785) -0.109
VEZF1 (UniProt Q14119) -0.009
WDR34 (UniProt Q96EX3) -0.045
WDR70 (UniProt Q9NW82) 0.012
WIPI1 (UniProt Q5MNZ9) 0.078

These targets were tested with Cn1cc(-c2ccc3c(c2)CCN3C(=O)Cc2cccc(C(F)(F)F)c2)c2c(N)ncnc21 in the same assay as above.
Summary of the method: as §1

log2 fold change, inactive:
WDR61 (UniProt Q9GZS3) 0.023
WDR36 (UniProt Q8NI36) -0.13
WDR44 (UniProt Q5JSH3) 0.025
WDR13 (UniProt Q9H1Z4) 0.041
WASL (UniProt O00401) 0.021
WDR74 (UniProt Q6RFH5) -0.085
WASHC2A (UniProt Q641Q2) -0.088
WARS (UniProt P23381) 0.029
WASHC4 (UniProt Q2M389) -0.045
WDFY1 (UniProt Q8IWB7) 0.017
VPS13C (UniProt Q709C8) 0.013
WBP11 (UniProt Q9Y2W2) -0.017
WDR45B (UniProt Q5MNZ6) 0.017
VPS35 (UniProt Q96QK1) 0.023
WDR77 (UniProt Q9BQA1) 0.044
WDR5 (UniProt P61964) -0.153
WASF2 (UniProt Q9Y6W5) -0.016
VRK3 (UniProt Q8IV63) -0.092
WDR89 (UniProt Q96FK6) 0.015
WRAP73 (UniProt Q9P2S5) 0.037
VDAC3 (UniProt Q9Y277) 0.016
WDR6 (UniProt Q9NNW5) -0.025
WDR20 isoform 7 (UniProt Q8TBZ3) -0.037
WIPF3 (UniProt A6NGB9) 0.004
WRAP53 (UniProt Q9BUR4) -0.073
WDR45 (UniProt Q9Y484) 0.014
VTN (UniProt P04004) 0.059
VPS4B (UniProt O75351) 0.028
VWA5A (UniProt O00534) 0.111
WIZ (UniProt O95785) -0.01
VEZF1 (UniProt Q14119) -0.062
WDR34 (UniProt Q96EX3) 0.026
WDR70 (UniProt Q9NW82) 0.003
WIPI1 (UniProt Q5MNZ9) -0.019
